These are yes or no findings as the source states them, for the method shown. In cells and extracts the contact can be indirect. Binding can be weak; no strength is given. Where a sequence is shown, tags or fusion partners need not be part of it.

The target in this test is T1, ARLPK1-interacting receptor-like kinase 1 (AKIK1), FLAG-tagged (Arabidopsis) (UniProt C0LGW2).
T1 sequence: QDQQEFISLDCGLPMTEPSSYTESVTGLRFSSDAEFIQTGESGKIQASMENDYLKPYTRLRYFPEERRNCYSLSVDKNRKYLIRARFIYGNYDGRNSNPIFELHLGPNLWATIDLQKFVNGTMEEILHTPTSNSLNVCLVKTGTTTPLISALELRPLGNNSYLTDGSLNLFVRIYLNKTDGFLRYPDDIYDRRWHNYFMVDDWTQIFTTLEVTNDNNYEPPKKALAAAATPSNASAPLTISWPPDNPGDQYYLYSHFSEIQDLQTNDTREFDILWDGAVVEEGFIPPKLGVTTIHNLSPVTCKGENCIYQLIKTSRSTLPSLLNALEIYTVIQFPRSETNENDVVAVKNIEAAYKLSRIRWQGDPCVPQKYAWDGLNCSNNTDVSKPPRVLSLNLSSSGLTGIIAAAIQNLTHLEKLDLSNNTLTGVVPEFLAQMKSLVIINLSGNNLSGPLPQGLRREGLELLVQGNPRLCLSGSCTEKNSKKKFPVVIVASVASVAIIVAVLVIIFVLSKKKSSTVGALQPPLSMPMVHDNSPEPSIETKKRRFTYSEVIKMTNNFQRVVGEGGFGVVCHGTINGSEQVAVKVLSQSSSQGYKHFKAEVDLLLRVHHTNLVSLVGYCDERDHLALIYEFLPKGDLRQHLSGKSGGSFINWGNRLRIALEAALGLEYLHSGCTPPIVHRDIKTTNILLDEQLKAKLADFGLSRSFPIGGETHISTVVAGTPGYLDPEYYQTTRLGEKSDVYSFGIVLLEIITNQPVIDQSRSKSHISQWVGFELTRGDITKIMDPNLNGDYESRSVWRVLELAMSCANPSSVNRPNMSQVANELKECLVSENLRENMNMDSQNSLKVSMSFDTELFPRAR
The test can be described thus: co-IP; transient co-expression in N. benthamiana leaves; total proteins from extracts immunoprecipitated with ANTI-FLAG M2 affinity gel; western blot with anti-FLAG and anti-YFP antibodies. In general terms: Immunoblotting shows a protein as a band on a membrane.

Regarding “atypical receptor-like pseudokinase 2 (ARLPK2), YFP-tagged (Arabidopsis)”, the binding entry is listed as “no binding”.
“atypical receptor-like pseudokinase 1 (ARLPK1), YFP-tagged (Arabidopsis)”: the binding entry is recorded as “binds”.

These data come from publication PMC4848489.
